Experimental data taken from article PMC4649089, “Urea Unfolding Study of E. coli Alanyl-tRNA Synthetase and Its Monomeric Variants Proves the Role of C-Terminal Domain in Stability” (Journal of Amino Acids, 2015).
No constants are given. Whether binding was seen depends on the method and setting.

What was measured:
[1] = molecular target: wild type E. coli alanyl-tRNA synthetase (E. coli) (UniProt P00957); assay: AUC; sedimentation velocity, 4 μM, 28,000 rpm, 20°C, 100 mM Tris-HCl pH 8.0, with 3.5 M urea; both purified
[2] = molecular target: wild type E. coli alanyl-tRNA synthetase (E. coli) (UniProt P00957); assay: AUC; sedimentation velocity, 4 μM, 28,000 rpm, 20°C, 100 mM Tris-HCl pH 8.0, with 8 M urea; both purified

B1: wild type E. coli alanyl-tRNA synthetase (enzyme, UniProt P00957 1-876, looked up)
chain: MSKSTAEIRQAFLDFFHSKGHQVVASSSLVPHNDPTLLFTNAGMNQFKDVFLGLDKRNYSRATTSQRCVRAGGKHNDLENVGYTARHHTFFEMLGNFSFGDYFKHDAIQFAWELLTSEKWFALPKERLWVTVYESDDEAYEIWEKEVGIPRERIIRIGDNKGAPYASDNFWQMGDTGPCGPCTEIFYDHGDHIWGGPPGSPEEDGDRYIEIWNIVFMQFNRQADGTMEPLPKPSVDTGMGLERIAAVLQHVNSNYDIDLFRTLIQAVAKVTGATDLSNKSLRVIADHIRSCAFLIADGVMPSNENRGYVLRRIIRRAVRHGNMLGAKETFFYKLVGPLIDVMGSAGEDLKRQQAQVEQVLKTEEEQFARTLERGLALLDEELAKLSGDTLDGETAFRLYDTYGFPVDLTADVCRERNIKVDEAGFEAAMEEQRRRAREASGFGADYNAMIRVDSASEFKGYDHLELNGKVTALFVDGKAVDAINAGQEAVVVLDQTPFYAESGGQVGDKGELKGANFSFAVEDTQKYGQAIGHIGKLAAGSLKVGDAVQADVDEARRARIRLNHSATHLMHAALRQVLGTHVSQKGSLVNDKVLRFDFSHNEAMKPEEIRAVEDLVNTQIRRNLPIETNIMDLEAAKAKGAMALFGEKYDERVRVLSMGDFSTELCGGTHASRTGDIGLFRIISESGTAAGVRRIEAVTGEGAIATVHADSDRLSEVAHLLKGDSNNLADKVRSVLERTRQLEKELQQLKEQAAAQESANLSSKAIDVNGVKLLVSELSGVEPKMLRTMVDDLKNQLGSTIIVLATVVEGKVSLIAGVSKDVTDRVKAGELIGMVAQQVGGKGGGRPDMAQAGGTDAAALPAALASVKGWVSAKLQ
notes: alanyl-tRNA synthetase (alaRS), E. coli, full length, printed as 875 residues per subunit; Clone was a gift from Paul Schimmel; homodimer by sedimentation equilibrium and velocity; also called WT-alaRS; WT; source: E. coli BL21 (DE3), pET28a, purified (Ni-NTA agarose)
Q: How did the binding [1] turn out when B1 was run?
A: Its binding is “no binding (condition: with 3.5 M urea)”.

Q: And the binding [2]?
A: The binding was “no binding (condition: with 8 M urea)”.
